# Results are given in words; binding and its absence hold for the method and conditions named. Binding seen in cells or lysates may run through a third protein. A result given as binding can be weak or reduced; the word gives no strength. Sequences can lack the tags named with a protein.
# Sequences of proteins named here, by UniProt entry; tags and fusion partners are left off. A change or cut given only in a name is not applied to a line headed by its entry.
# UniProt O60242: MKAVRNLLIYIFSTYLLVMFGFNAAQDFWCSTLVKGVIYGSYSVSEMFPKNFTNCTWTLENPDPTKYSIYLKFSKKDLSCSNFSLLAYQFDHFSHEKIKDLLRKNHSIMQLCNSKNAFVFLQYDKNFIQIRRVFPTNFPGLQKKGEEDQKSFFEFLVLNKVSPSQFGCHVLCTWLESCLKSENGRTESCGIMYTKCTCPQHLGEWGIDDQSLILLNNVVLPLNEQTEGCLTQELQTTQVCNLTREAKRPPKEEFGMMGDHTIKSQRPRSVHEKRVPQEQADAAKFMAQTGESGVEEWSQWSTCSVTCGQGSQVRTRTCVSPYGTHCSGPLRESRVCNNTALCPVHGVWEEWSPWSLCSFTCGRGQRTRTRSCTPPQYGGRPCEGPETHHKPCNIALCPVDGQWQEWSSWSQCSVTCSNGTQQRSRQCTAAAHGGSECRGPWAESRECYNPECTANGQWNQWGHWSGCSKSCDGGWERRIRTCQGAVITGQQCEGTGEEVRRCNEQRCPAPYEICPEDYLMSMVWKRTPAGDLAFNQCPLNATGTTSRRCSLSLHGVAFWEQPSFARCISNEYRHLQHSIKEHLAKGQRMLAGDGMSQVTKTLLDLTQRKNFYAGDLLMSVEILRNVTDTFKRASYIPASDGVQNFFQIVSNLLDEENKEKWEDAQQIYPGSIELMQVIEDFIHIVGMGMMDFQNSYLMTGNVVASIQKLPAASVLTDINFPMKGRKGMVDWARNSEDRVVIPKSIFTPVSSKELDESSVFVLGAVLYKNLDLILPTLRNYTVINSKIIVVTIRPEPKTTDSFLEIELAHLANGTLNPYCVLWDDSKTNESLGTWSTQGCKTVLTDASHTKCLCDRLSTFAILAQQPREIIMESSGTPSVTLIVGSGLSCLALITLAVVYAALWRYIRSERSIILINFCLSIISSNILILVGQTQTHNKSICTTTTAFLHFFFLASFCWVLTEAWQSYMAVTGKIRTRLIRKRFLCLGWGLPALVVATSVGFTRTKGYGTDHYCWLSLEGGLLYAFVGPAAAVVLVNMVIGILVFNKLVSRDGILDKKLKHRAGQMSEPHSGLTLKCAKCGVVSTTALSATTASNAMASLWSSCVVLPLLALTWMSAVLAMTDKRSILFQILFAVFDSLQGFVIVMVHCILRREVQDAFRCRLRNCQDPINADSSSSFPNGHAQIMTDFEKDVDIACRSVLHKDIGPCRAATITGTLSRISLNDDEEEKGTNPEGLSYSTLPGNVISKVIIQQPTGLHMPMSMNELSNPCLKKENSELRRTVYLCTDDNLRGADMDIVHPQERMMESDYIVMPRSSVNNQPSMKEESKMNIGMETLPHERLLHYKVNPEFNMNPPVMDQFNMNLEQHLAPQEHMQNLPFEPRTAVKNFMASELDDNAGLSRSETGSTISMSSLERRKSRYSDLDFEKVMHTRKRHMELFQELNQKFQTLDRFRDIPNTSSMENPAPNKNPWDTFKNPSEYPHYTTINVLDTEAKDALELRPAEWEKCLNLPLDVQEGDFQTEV
# T1: GST-tagged ELMO2-RAE (human) (UniProt Q96JJ3)
# T1 sequence: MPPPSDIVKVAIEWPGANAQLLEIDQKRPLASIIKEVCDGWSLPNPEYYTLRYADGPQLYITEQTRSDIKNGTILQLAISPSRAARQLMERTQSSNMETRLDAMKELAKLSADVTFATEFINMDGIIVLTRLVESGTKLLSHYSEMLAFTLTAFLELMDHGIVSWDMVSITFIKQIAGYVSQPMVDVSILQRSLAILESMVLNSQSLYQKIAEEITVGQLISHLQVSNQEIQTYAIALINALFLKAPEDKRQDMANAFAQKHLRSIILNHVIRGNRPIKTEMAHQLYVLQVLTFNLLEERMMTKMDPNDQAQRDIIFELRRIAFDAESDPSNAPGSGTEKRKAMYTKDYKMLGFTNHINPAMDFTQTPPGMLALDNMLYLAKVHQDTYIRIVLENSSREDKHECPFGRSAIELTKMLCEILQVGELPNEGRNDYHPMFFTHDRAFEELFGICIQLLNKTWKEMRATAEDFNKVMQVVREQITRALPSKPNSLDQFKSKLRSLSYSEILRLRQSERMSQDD
# Columns and labels:
# [1] = biological target: T1, GST-tagged ELMO2-RAE (human); assay: pull-down; GST-tagged ELMO2 proteins on GSH-sepharose beads, lysates of HEK293T cells overexpressing GFP-tagged GPR128-CT; anti-GFP western blot; only the target purified
# [2] = biological target: BAI3 ELMO-binding domain (UniProt O60242); assay: pull-down; GST-tagged BAI proteins pre-loaded on GSH-sepharose 4B beads, incubated with lysates of HEK293T cells overexpressing Flag-tagged ELMO2 proteins; lysis buffer 50 mM HEPES pH 7.4, 150 mM NaCl, 1 mM EGTA, 10% glycerol, 1% Triton; 4 °C, 1 h; anti-Flag western blot; only the target purified
Molecule,binding [1],binding [2]
GFP-tagged GPR128 cytosolic tail (aa 717-785) (domain or fragment),binds,
"Flag-tagged RBD-ARR-ELMO tandem of ELMO2 (aa 1-520) (domain or fragment, UniProt Q96JJ3 1-520) MPPPSDIVKVAIEWPGANAQLLEIDQKRPLASIIKEVCDGWSLPNPEYYTLRYADGPQLYITEQTRSDIKNGTILQLAISPSRAARQLMERTQSSNMETRLDAMKELAKLSADVTFATEFINMDGIIVLTRLVESGTKLLSHYSEMLAFTLTAFLELMDHGIVSWDMVSITFIKQIAGYVSQPMVDVSILQRSLAILESMVLNSQSLYQKIAEEITVGQLISHLQVSNQEIQTYAIALINALFLKAPEDKRQDMANAFAQKHLRSIILNHVIRGNRPIKTEMAHQLYVLQVLTFNLLEERMMTKMDPNDQAQRDIIFELRRIAFDAESDPSNAPGSGTEKRKAMYTKDYKMLGFTNHINPAMDFTQTPPGMLALDNMLYLAKVHQDTYIRIVLENSSREDKHECPFGRSAIELTKMLCEILQVGELPNEGRNDYHPMFFTHDRAFEELFGICIQLLNKTWKEMRATAEDFNKVMQVVREQITRALPSKPNSLDQFKSKLRSLSYSEILRLRQSERMSQDD",,binds
